# Results are given in words; binding and its absence hold for the method and conditions named. Binding seen in cells or lysates may run through a third protein. Here binding means that the protein was enriched with, or labelled near, the bait; the list need not be complete.
# Amino acid sequences for entries named in this document (tags omitted). Residues count along the entry.
# UniProt P70206, residues 28-1894: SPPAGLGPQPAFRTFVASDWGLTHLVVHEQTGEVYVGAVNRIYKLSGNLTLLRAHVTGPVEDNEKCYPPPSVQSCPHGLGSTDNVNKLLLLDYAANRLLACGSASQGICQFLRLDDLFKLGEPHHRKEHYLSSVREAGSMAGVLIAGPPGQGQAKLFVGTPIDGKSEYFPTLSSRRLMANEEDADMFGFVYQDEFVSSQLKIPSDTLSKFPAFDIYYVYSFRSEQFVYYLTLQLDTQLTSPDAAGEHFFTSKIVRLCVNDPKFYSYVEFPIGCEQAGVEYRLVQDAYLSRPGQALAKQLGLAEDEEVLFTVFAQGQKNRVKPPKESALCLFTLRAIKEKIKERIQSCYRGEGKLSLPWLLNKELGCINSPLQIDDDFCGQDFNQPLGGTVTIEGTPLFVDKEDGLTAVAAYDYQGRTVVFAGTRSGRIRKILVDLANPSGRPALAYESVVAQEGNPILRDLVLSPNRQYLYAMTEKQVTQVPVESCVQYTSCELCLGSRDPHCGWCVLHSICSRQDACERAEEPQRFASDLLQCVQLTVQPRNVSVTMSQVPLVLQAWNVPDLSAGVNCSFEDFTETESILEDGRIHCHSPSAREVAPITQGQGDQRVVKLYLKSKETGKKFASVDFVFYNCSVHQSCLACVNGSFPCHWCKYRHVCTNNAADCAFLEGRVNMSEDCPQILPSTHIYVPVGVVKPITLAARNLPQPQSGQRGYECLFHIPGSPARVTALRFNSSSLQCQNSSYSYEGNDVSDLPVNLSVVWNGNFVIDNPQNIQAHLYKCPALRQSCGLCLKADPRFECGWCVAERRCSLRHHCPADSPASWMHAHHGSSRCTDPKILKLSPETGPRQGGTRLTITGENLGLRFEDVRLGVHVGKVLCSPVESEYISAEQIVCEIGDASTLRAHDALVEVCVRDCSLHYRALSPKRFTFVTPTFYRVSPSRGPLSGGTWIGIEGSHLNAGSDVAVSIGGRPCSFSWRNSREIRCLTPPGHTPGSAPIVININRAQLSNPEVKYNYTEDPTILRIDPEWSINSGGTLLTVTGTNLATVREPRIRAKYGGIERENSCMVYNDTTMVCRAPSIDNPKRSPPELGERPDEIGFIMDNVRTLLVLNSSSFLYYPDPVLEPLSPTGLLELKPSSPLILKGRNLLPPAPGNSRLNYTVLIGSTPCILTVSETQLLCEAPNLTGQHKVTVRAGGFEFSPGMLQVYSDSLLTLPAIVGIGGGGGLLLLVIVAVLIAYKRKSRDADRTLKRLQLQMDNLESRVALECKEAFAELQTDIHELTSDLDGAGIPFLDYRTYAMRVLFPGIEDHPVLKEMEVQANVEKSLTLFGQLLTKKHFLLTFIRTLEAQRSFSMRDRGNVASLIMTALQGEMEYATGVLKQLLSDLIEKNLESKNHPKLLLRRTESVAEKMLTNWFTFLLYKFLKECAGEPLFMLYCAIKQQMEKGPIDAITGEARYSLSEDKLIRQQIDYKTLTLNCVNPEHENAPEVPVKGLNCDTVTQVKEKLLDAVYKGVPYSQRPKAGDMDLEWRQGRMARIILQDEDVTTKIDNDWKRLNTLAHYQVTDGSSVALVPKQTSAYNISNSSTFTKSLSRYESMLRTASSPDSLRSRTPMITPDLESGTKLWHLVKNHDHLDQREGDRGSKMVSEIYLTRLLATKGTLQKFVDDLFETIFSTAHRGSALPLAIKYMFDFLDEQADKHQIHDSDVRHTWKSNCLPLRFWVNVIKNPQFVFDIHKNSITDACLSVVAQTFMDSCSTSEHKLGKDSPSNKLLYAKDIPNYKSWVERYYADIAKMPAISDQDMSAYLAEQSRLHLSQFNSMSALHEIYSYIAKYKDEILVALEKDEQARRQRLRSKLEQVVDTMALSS
# Target: Plexin-A1, endogenous in mouse bone marrow cell-derived PDC (mouse) (UniProt P70206)
# Test: co-immunoprecipitation with antibody to membrane molecule (A) from mouse bone marrow-derived PDC, band identified by mass spectrometry
binder,measurement,value
"membrane molecule (A) of the present invention (PDC-TREM), mouse, full length (receptor) QNPELLRTQEGETVSVTCWYDSLYHSSEKIWCKQIDNLCYPFVSKSAEKPRFLIQQSSRFNFFTVTMTKLKMSDSGIYHCGIVANNTSVYLRNIHLVVSKGSSVVSTPDIIPATRLTKLPTLITTKHSPSDTTTTRSLPQPTTVVSSPDPRVIIINGTDADRGFVSSVTIPVVCGLLSKTLVFTVLFIVTQKSFGRQAMKAHNSNS",binding,binds
